Binding data for one substance are collected here from paper PMC10457402.

Sequences of proteins named here, by UniProt entry; tags and fusion partners are left off.
UniProt Q9BUL5: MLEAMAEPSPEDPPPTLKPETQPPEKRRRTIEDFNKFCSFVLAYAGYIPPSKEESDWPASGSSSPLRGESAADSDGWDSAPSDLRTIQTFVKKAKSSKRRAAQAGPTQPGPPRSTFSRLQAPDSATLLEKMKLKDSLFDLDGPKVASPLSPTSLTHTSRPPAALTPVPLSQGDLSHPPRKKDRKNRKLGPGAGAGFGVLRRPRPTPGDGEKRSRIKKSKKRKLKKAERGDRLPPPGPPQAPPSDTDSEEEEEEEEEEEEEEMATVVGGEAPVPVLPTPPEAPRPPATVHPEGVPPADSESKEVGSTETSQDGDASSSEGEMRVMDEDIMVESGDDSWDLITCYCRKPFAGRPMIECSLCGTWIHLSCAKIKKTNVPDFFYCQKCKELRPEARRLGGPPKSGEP
UniProt O43707: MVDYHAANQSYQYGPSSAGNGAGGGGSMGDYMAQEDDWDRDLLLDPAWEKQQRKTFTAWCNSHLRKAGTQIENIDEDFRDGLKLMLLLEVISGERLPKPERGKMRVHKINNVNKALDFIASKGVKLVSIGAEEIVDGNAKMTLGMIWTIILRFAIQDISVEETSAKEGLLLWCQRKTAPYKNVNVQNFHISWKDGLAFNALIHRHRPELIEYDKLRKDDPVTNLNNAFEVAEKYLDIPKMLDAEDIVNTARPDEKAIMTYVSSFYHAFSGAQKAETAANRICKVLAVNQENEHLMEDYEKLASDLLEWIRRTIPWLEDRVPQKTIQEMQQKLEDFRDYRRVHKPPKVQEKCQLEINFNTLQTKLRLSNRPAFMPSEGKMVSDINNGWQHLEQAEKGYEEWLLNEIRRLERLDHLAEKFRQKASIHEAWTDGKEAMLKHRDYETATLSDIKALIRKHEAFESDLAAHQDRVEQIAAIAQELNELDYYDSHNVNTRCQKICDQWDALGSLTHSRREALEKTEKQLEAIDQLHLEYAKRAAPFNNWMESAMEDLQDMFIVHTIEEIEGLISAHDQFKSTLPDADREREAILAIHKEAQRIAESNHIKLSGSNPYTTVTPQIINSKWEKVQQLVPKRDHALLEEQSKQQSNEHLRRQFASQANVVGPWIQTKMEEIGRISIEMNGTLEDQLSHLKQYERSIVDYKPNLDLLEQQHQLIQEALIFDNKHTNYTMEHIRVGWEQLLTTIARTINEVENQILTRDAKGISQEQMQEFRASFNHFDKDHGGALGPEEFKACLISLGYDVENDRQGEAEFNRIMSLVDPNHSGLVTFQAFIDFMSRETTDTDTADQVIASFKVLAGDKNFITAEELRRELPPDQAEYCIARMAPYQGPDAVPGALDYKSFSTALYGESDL

These are yes or no findings as the source states them, for the method shown. In cells and extracts the contact can be indirect. A yes stands for co-enrichment or nearness to the bait. Other partners may have been found.

The target of the test is Plant homologous structural domain finger protein 23 (PHF23) (human) (UniProt Q9BUL5). Put plainly: affinity purification with mass spectrometry; H1299 cells; pulled down by the PHF23 antibody, SDS-PAGE with Coomassie staining, mass spectrometry.

For the substance “Alpha-actinin-4 (ACTN4) (from UniProt O43707 1-911)”, the binding result is listed as “binds”.
